# From PubChem BioAssay AID2517 (National Center for Advancing Translational Sciences (NCATS), 2010)
# The chains behind the UniProt entries cited, without tags or fusion partners.
# UniProt P27695, whole entry, looked up: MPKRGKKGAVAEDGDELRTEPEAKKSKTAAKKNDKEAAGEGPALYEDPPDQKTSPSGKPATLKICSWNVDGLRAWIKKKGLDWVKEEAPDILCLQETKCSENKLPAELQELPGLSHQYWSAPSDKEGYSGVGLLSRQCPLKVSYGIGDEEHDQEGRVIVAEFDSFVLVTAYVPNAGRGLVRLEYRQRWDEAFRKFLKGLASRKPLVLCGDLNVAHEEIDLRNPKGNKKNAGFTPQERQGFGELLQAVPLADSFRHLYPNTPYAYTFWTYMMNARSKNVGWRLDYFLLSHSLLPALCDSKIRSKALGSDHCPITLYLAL
# The whole screen tested about 350,000 compounds, of which about 1,200 (0.34%) were called active. Inconclusive means that the source gave no clear call. Such entries were picked first, then a sample of the others. Calls follow the shape of the dose curve; as a rule, active = well fitted inhibition curve with a large enough effect; inconclusive = small, poorly fitted or top-dose-only effect; inactive = no such curve, though single readings can be large or run the other way. Potencies beside an inconclusive call are fits to weak or partial responses and may not hold up.
# Target: DNA repair nuclease/redox regulator APEX1 (Homo sapiens) (UniProt P27695)
# Test: qHTS Assay for Inhibitors of the Human Apurinic/apyrimidinic Endonuclease 1 (APE1); also: nearly all actives have a fitted effect of over 55% in size;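 as to activity change, negative = inhibition: plate controls were vehicle for no effect and reference inhibitor for full effect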
# Conditions: recombinant APE1, TAMRA/BHQ-2 abasic DNA cleavage fluorescence; activity change, negative = inhibition: at 65.8 µM (top of the series)
# How it was run: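 APE1 at 0.75 nM final was preincubated with compound 15 min at room temperature, then 50 nM double-stranded THF abasic-site substrate (5'-TAMRA/3'-BHQ-2) was added. Fluorescence (ex 525/em 598 nm) was read kinetically; third-minus-first read gave activity.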
# Potency is read from the fitted curve at half-maximal effect.
SMILES,Potency,"activity change, negative = inhibition"
CC1=C2C(CCS2(=O)=O)CC2(C1)C(=O)OC(C)(C)OC2=O (configuration not stated),"inconclusive: 44.7 µM [inhibitor, single point]",–
CCOC(=O)C1=C(CN2CCCCCC2)NC(=O)NC1c1cccc([N+](=O)[O-])c1 (configuration not stated),"inconclusive: 56.2 µM [inhibitor, partial curve, poor fit]",–
Cc1ccc(N=Nc2c(O)c3ccccc3[nH]c2=O)c(S(=O)(=O)N(C)C)c1,"inconclusive: 0.355 µM [inhibitor, full curve, poor fit]",–
O=C(COc1ccc2c(c1)OCO2)Nc1nccs1,–,inactive: 16%
COc1cc(C)cc(C(=O)O)c1C1=C(O)c2cccc(O)c2C(=O)C1=O,active: 35.5 µM,–
C#CCOCCOCCOCCNc1nc(N2CCN(C(=O)CCCCCCCCCCNC(=O)[C@@H](CCSC)n3cc(CCO)nn3)CC2)nc(N2CCN(C(=O)CCCCCCCCCCNC(=O)[C@H]([C@@H](C)CC)n3cc(CCCCN=C(N)N)nn3)CC2)n1,"inconclusive: 37.7 µM [inhibitor, single point]",–
Cn1cccc1CC(=O)N/N=C\c1ccccc1,–,inactive: 1.64%
O=C(NNC(=O)c1ccc2ccccc2c1)Nc1ccc(F)cc1,–,inactive: 30.4%
COc1cc(-c2oc3cc(O)cc(O)c3c(=O)c2O[C@@H]2O[C@H](CO)[C@@H](O)[C@H](O)[C@H]2O)cc(OC)c1O,–,inactive: 15.5%
Cn1c(N)c(C(=O)COC(=O)c2cccs2)c(=O)n(C)c1=O,"inconclusive: 0.178 µM [inhibitor, partial curve, poor fit]",–
Cc1cccc2c1c1ccc3c(c1n2C)C(=O)C=CC3=O,"inconclusive: 7.94 µM [inhibitor, full curve, poor fit]",–
COc1cccc(N=C2NC(=O)/C(=C/c3cc([N+](=O)[O-])ccc3O)S2)c1,"inconclusive: 37.7 µM [inhibitor, single point]",–
COc1ccccc1NC(=O)Cn1c(O)c(N=NC(=O)c2ccccc2O)c2ccccc21,–,inactive: -0.216%
C[n+]1ccccc1C1CCCC/C1=N\NC(N)=S (configuration not stated),–,inactive: -5.08%
O=C(Nc1ccc(N2CCOCC2)cc1)C1CC(O)CN1S(=O)(=O)c1ccc(Cl)cc1 (configuration not stated),"inconclusive: 0.224 µM [inhibitor, full curve]",–
COc1cc(Cl)nn(-c2ccccc2)c1=O,"inconclusive: 25.1 µM [inhibitor, partial curve]",–
Cc1ccc(NC2=C/C(=N\S(=O)(=O)c3cccs3)c3ccccc3C2=O)c(C)c1,"inconclusive: 10 µM [inhibitor, partial curve]",–
Cc1csc(NC(=O)CSc2nc3sc(C)c(C)c3c(=O)[nH]2)n1,–,inactive: 22.1%
O=Cc1cn(-c2ccccc2)nc1-c1cc2cc(O)ccc2oc1=O,"inconclusive: 39.8 µM [inhibitor, single point]",–
Cc1ccc(Nc2nc3ccccc3s2)c(C)c1,"inconclusive: 10 µM [inhibitor, partial curve, poor fit]",–
COc1ccc(NC(=O)CCNS(=O)(=O)c2ccc3c(c2)c(=O)n(C)c(=O)n3C)cc1OC,"inconclusive: 1.41 µM [inhibitor, full curve]",–

# Rewritten tab-delimited: three of the compounds above.
SMILES	Potency	activity change, negative = inhibition
O=Cc1cn(-c2ccccc2)nc1-c1cc2cc(O)ccc2oc1=O	inconclusive: 39.8 µM [inhibitor, single point]	–
Cc1ccc(Nc2nc3ccccc3s2)c(C)c1	inconclusive: 10 µM [inhibitor, partial curve, poor fit]	–
COc1ccc(NC(=O)CCNS(=O)(=O)c2ccc3c(c2)c(=O)n(C)c(=O)n3C)cc1OC	inconclusive: 1.41 µM [inhibitor, full curve]	–

# Next part:

SMILES,Potency,"activity change, negative = inhibition"
NS(=O)(=O)c1ccc(CNC(=O)/C=C/c2ccco2)cc1,"inconclusive: 25.1 µM [inhibitor, partial curve]",–
CCOc1cc(C(N)=O)cc(Cl)c1OCc1ccccc1,"inconclusive: 31.6 µM [inhibitor, single point]",–
C#CCOCCOCCOCCNc1nc(N2CCN(C(=O)CCCCCCCCCCNC(=O)[C@H](CCCCN)n3cc(C)nn3)CC2)nc(N2CCN(C(=O)CCCCCCCCCCNC(=O)[C@@H]([C@H](C)CC)n3cc(CCCCCN)nn3)CC2)n1,"inconclusive: 21.2 µM [inhibitor, single point]",–
COc1ncnc2c1NC1=C(S2)C(=NCCC(=O)O)CC(C)(C)C1,"inconclusive: 39.8 µM [inhibitor, single point]",–
CN(c1ccc(-c2csc(NC(=O)C3CC(=O)N(Cc4ccco4)C3)n2)cc1)S(C)(=O)=O (configuration not stated),–,inactive: -26.7%
COc1cc2c(cc1OC)C1CCC3=C([C@H](C)OC3=O)N1CC2 (some centres not stated),–,inactive: -1.58%
CC(=O)c1cccc(NC(=O)C(C)OC(=O)CNC(=O)c2ccc(C)s2)c1 (configuration not stated),"inconclusive: 44.7 µM [inhibitor, single point]",–
CCOc1cccc(C(=O)c2ccc(O)c(O)c2O)c1,"inconclusive: 39.8 µM [inhibitor, single point]",–
Cc1ccc(C(=O)CCC(=O)O)cc1,"inconclusive: 39.8 µM [inhibitor, single point]",–
Cc1cc(NC(=O)COC(=O)C2COc3ccccc3O2)no1 (configuration not stated),"inconclusive: 28.2 µM [inhibitor, single point]",–
COc1ccc(CNC(=O)CN2C(=O)C3CCCN3c3ncc(Cl)cc32)cc1 (configuration not stated),–,inactive: -2.45%
CCCCNC(=O)CSc1nc2ccc(NC(=O)CSc3nnc(COc4ccccc4C)n3C)cc2s1,"inconclusive: 44.7 µM [inhibitor, single point]",–
C/C(=N\NC(=O)c1nnn(-c2nonc2N)c1CN1CCC(C)CC1)c1cccc(Br)c1,"inconclusive: 37.7 µM [inhibitor, single point]",–
COc1ccc(C(=O)C[n+]2cccc3cc(C)ccc32)cc1,–,inactive: -8.32%
O=C1CCN(S(=O)(=O)c2ccc(Cl)cc2)CCN1,"inconclusive: 10 µM [inhibitor, single point]",–
COc1ccc(-c2nn3c(C4CCCCC4)nnc3s2)cc1OC,"inconclusive: 39.8 µM [inhibitor, single point]",–
Cc1ccccc1N1C(=O)C(Cc2ccc(F)cc2)S/C1=C(\C#N)C(N)=O (configuration not stated),"inconclusive: 3.16 µM [inhibitor, partial curve, poor fit]",–
Cn1cccc1C1C(C#N)=C(N)OC2=C1C(=O)CC(C)(C)C2 (configuration not stated),–,inactive: 10.9%
O=C(CN1CCC(n2nnc3cc(F)ccc32)CC1)NCc1ccco1,"inconclusive: 39.8 µM [inhibitor, single point]",–
Cc1cccc(-n2nnc3cnn(C)c3c2=O)c1,"inconclusive: 35.5 µM [inhibitor, partial curve]",–
Cc1ccc(OCC(=O)c2ccc(Cl)s2)c([N+](=O)[O-])n1,"inconclusive: 35.5 µM [inhibitor, single point]",–
